Data taken from the supplement of paper PMC8728848.
The other results are listed elsewhere or left out.

Experiments:
Assay in all cases: glycan array binding signal (z-score within array); higher = stronger binding
Conditions in all cases: glycan notation: IUPAC condensed, linker removed
[1] = target: Gal(b1-4)GlcNAc(b1-3)Gal(b1-4)GlcNAc(b1-3)Gal(b1-4)GlcNAc(b1-3)Gal(b1-4)GlcNAc(b1-2)Man(a1-3)[Gal(b1-4)GlcNAc(b1-3)Gal(b1-4)GlcNAc(b1-3)Gal(b1-4)GlcNAc(b1-3)Gal(b1-4)GlcNAc(b1-2)Man(a1-6)]Man(b1-4)GlcNAc(b1-4)[Fuc(a1-6)]GlcNAc
How it was run: (§1)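 Glycan array binding is given as a within-array Z-score, which can be read as non-binding when negative. The arrays, 3228 of them, came from the Consortium for Functional Glycomics database and were retained only where the protein sequence was available. Z-scores were averaged across arrays of the same protein sequence at different concentrations or buffers and across linkers.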

[2] = target: Gal(b1-4)GlcNAc(b1-3)Gal(b1-4)GlcNAc(b1-3)Gal(b1-4)GlcNAc(b1-3)Gal(b1-4)GlcNAc(b1-2)[Gal(b1-4)GlcNAc(b1-3)Gal(b1-4)GlcNAc(b1-3)Gal(b1-4)GlcNAc(b1-3)Gal(b1-4)GlcNAc(b1-6)]Man(a1-6)[Gal(b1-4)GlcNAc(b1-3)Gal(b1-4)GlcNAc(b1-3)Gal(b1-4)GlcNAc(b1-3)Gal(b1-4)GlcNAc(b1-2)Man(a1-3)]Man(b1-4)GlcNAc(b1-4)[Fuc(a1-6)]GlcNAc
How it was run: as §1

[3] = target: Gal(b1-4)GlcNAc(b1-3)Gal(b1-4)GlcNAc(b1-3)Gal(b1-4)GlcNAc(b1-3)Gal(b1-4)GlcNAc(b1-3)Gal(b1-4)GlcNAc(b1-2)Man(a1-3)[Gal(b1-4)GlcNAc(b1-3)Gal(b1-4)GlcNAc(b1-3)Gal(b1-4)GlcNAc(b1-3)Gal(b1-4)GlcNAc(b1-3)Gal(b1-4)GlcNAc(b1-2)Man(a1-6)]Man(b1-4)GlcNAc(b1-4)GlcNAc
How it was run: as §1

[4] = target: Gal(b1-4)GlcNAc(b1-3)Gal(b1-4)GlcNAc(b1-3)Gal(b1-4)GlcNAc(b1-3)Gal(b1-4)GlcNAc(b1-3)Gal(b1-4)GlcNAc(b1-2)Man(a1-3)[Gal(b1-4)GlcNAc(b1-3)Gal(b1-4)GlcNAc(b1-3)Gal(b1-4)GlcNAc(b1-3)Gal(b1-4)GlcNAc(b1-3)Gal(b1-4)GlcNAc(b1-2)Man(a1-6)]Man(b1-4)GlcNAc(b1-4)[Fuc(a1-6)]GlcNAc
How it was run: as §1

[5] = target: Gal(b1-4)GlcNAc(b1-3)Gal(b1-4)GlcNAc(b1-3)Gal(b1-4)GlcNAc(b1-3)Gal(b1-4)GlcNAc(b1-3)Gal(b1-4)GlcNAc(b1-2)[Gal(b1-4)GlcNAc(b1-3)Gal(b1-4)GlcNAc(b1-3)Gal(b1-4)GlcNAc(b1-3)Gal(b1-4)GlcNAc(b1-3)Gal(b1-4)GlcNAc(b1-6)]Man(a1-6)[Gal(b1-4)GlcNAc(b1-3)Gal(b1-4)GlcNAc(b1-3)Gal(b1-4)GlcNAc(b1-3)Gal(b1-4)GlcNAc(b1-3)Gal(b1-4)GlcNAc(b1-2)Man(a1-3)]Man(b1-4)GlcNAc(b1-4)[Fuc(a1-6)]GlcNAc
How it was run: as §1

[6] = target: Gal(b1-4)GlcNAc(b1-3)Gal(b1-4)GlcNAc(b1-3)Gal(b1-4)GlcNAc(b1-3)Gal(b1-4)GlcNAc(b1-3)Gal(b1-4)GlcNAc(b1-3)Gal(b1-4)GlcNAc(b1-2)Man(a1-3)[Gal(b1-4)GlcNAc(b1-3)Gal(b1-4)GlcNAc(b1-3)Gal(b1-4)GlcNAc(b1-3)Gal(b1-4)GlcNAc(b1-3)Gal(b1-4)GlcNAc(b1-3)Gal(b1-4)GlcNAc(b1-2)Man(a1-6)]Man(b1-4)GlcNAc(b1-4)GlcNAc
How it was run: as §1

[7] = target: Gal(b1-4)GlcNAc(b1-3)Gal(b1-4)GlcNAc(b1-3)GalNAc
How it was run: as §1

[8] = target: Gal(b1-4)GlcNAc(b1-3)Gal(b1-4)GlcNAc(b1-3)[Gal(b1-4)GlcNAc(b1-3)Gal(b1-4)GlcNAc(b1-6)]GalNAc
How it was run: as §1

[9] = target: Gal(b1-4)GlcNAc(b1-3)Gal(b1-4)GlcNAc(b1-6)[Gal(b1-3)]GalNAc
How it was run: as §1

[10] = target: Gal(b1-4)GlcNAc(b1-3)Gal(b1-4)[Fuc(a1-3)]GlcNAc(b1-3)Gal(b1-4)[Fuc(a1-3)]GlcNAc
How it was run: as §1

[11] = target: Gal(b1-4)GlcNAc(b1-3)GalNAc
How it was run: as §1

[12] = target: Gal(b1-4)GlcNAc(b1-3)[Fuc(a1-3)GlcNAc(b1-6)]Gal(b1-4)Glc
How it was run: as §1

[13] = target: Gal(b1-4)GlcNAc(b1-3)[Gal(b1-4)GlcNAc(b1-6)]Gal(b1-4)GlcNAc
How it was run: as §1

[14] = target: Gal(b1-4)GlcNAc(b1-3)[GlcNAc(b1-6)]Gal(b1-4)GlcNAc
How it was run: as §1

[15] = target: Gal(b1-4)GlcNAc(b1-6)Gal(b1-4)GlcNAc
How it was run: as §1

[16] = target: Gal(b1-4)GlcNAc(b1-6)GalNAc
How it was run: as §1

[17] = target: Gal(b1-4)GlcNAc(b1-6)[Gal(b1-3)]GalNAc
How it was run: as §1

[18] = target: Gal(b1-4)GlcNAc(b1-6)[Gal(b1-4)GlcNAc(b1-3)]GalNAc
How it was run: as §1

[19] = target: Gal(b1-4)GlcNAc6P
How it was run: as §1

[20] = target: Gal(b1-6)Gal
How it was run: as §1

[21] = target: Gal3S(b1-3)GalNAc
How it was run: as §1

[22] = target: Gal3S(b1-3)GlcNAc
How it was run: as §1

[23] = target: Gal3S(b1-3)[Fuc(a1-4)]GlcNAc
How it was run: as §1

[24] = target: Gal3S(b1-4)Glc
How it was run: as §1

[25] = target: Gal3S(b1-4)Glc6S
How it was run: as §1

[26] = target: Gal3S(b1-4)GlcNAc
How it was run: as §1

[27] = target: Gal3S(b1-4)[Fuc(a1-3)]Glc6S
How it was run: as §1

[28] = target: Gal3S(b1-4)[Fuc(a1-3)]GlcNAc
How it was run: as §1

[29] = target: Gal3S(b1-4)[Fuc(a1-3)]GlcNAc6S
How it was run: as §1

[30] = target: Gal3S4S(b1-4)GlcNAc
How it was run: as §1

[31] = target: Gal3S6S(b1-4)GlcNAc
How it was run: as §1

[32] = target: Gal3S6S(b1-4)GlcNAc6S
How it was run: as §1

[33] = target: Gal4S(b1-4)GlcNAc
How it was run: as §1

[34] = target: Gal4S6S(b1-4)GlcNAc
How it was run: as §1

[35] = target: Gal6P(b1-4)GlcNAc
How it was run: as §1

[36] = target: Gal6S(b1-3)GlcNAc
How it was run: as §1

[37] = target: Gal6S(b1-3)GlcNAc6S
How it was run: as §1

[38] = target: Gal6S(b1-4)Glc
How it was run: as §1

B1: TAL6-4LysM (Trichoderma atroviride) (protein)
chain: AADSIPSISPTGIITPTPTQSGMVSNCNKFYDVHSNDGCSAIASSQHVDLSSLYKWNPAIKTDCSGLQASVYVCIGILTTSMSTTSKLPTTTSKPSTTSKPPTGITTPTPTQSGMVKNCNKFYDVHSGDGCSAIASSQKVNLSSFYLWNPAVKTDCSGLQASVFVCIGTLTTSMSTTTSKLPTTTSKPSTTSKPPTGIITPTPTQNGMVKNCNKFYDVHSGDGCSAIASSQKVNLSSFYLWNPAVKTDCSGLQASVFVCVGTATTTTAAGITTPTPTQSGMVSGCNKFYDVHAGDGCSAIASSQKIALSSLYKWNPAVKTDCSGLQASVYICIGVGNAAAARVTGALEQKLISEEDLNSAVDHHHHHH
glycan array binding signal (z-score) [1]: 0.567
glycan array binding signal (z-score) [2]: 0.311
glycan array binding signal (z-score) [3]: -0.74
glycan array binding signal (z-score) [4]: 1.5
glycan array binding signal (z-score) [5]: -0.777
glycan array binding signal (z-score) [6]: 0.225
glycan array binding signal (z-score) [7]: 0.204
glycan array binding signal (z-score) [8]: 0.88
glycan array binding signal (z-score) [9]: 1.17
glycan array binding signal (z-score) [10]: -0.176
glycan array binding signal (z-score) [11]: -0.187
glycan array binding signal (z-score) [12]: -1.77
glycan array binding signal (z-score) [13]: 0.074
glycan array binding signal (z-score) [14]: 0.861
glycan array binding signal (z-score) [15]: -0.276
glycan array binding signal (z-score) [16]: 0.76
glycan array binding signal (z-score) [17]: -0.122
glycan array binding signal (z-score) [18]: 0.866
glycan array binding signal (z-score) [19]: 1.53
glycan array binding signal (z-score) [20]: -0.059
glycan array binding signal (z-score) [21]: -1.27
glycan array binding signal (z-score) [22]: 1.92
glycan array binding signal (z-score) [23]: -1.3
glycan array binding signal (z-score) [24]: 1.82
glycan array binding signal (z-score) [25]: 0.91
glycan array binding signal (z-score) [26]: -0.395
glycan array binding signal (z-score) [27]: 0.417
glycan array binding signal (z-score) [28]: -0.031
glycan array binding signal (z-score) [29]: 0.652
glycan array binding signal (z-score) [30]: -0.189
glycan array binding signal (z-score) [31]: 2.28
glycan array binding signal (z-score) [32]: 1.88
glycan array binding signal (z-score) [33]: 0.035
glycan array binding signal (z-score) [34]: 1.94
glycan array binding signal (z-score) [35]: 0.133
glycan array binding signal (z-score) [36]: -1.32
glycan array binding signal (z-score) [37]: 0.018
glycan array binding signal (z-score) [38]: -0.536
